Reference: the supplement of paper PMC12889115
The list shows a part of the results. Values are raw readings; no control value is given beside them.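 First-pass screen: polymyxin B was added at a level that permeabilizes the Salmonella outer membrane while sparing the inner membrane. DMSO wells, with and without polymyxin B, defined maximum growth. Because plates differed from one another, each plate's data were ranked separately and the compounds with the lowest OD600 were carried forward as hits.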

Test system: Salmonella enterica serovar Typhimurium SL1344
Experiment: bacterial growth OD600 after 18 h with compound and polymyxin B; higher = more bacterial growth (less inhibition)
Conditions: 50 µM, Mueller-Hinton broth

SMILES | bacterial growth OD600 (polymyxin B 0.75 µg/mL) | bacterial growth OD600 (polymyxin B 1 µg/mL)
O=C(NCCN1CCOCC1)c1ccc(N2CCC(NCc3ccc4c(c3)OCO4)CC2)cc1 | 0.689 | 
CN(Cc1ccon1)C(=O)C1CCCN(c2nc(-c3ccccc3)nc3c2CCC3)C1 (stereo unspecified) |  | 0.553
O=C(/C=C/c1ccco1)N1CCC2(CCCN(CCCc3ccccc3)C2)C1 (stereo unspecified) |  | 0.024
O=C(CCC(F)(F)F)N1CCCC(CCc2c(F)cccc2F)C1 (stereo unspecified) | 0.107 | 
CC(C)CN1CCC(C2CCN(S(=O)(=O)CC(F)(F)F)C2)CC1 (stereo unspecified) | 0.916 | 
Cc1csc(CN(C)C(=O)c2ccc3oc(CCc4ccccc4)nc3c2)n1 |  | 0.864
O=C(Nc1ccc(Oc2ccccc2)nc1)C1CCN(Cc2cccnc2)CC1 |  | 0.982
COCc1ccc(C(=O)N(C)CC2CCN(CCc3ccc(Cl)cc3)CC2)o1 |  | 0.967
CN(CC1CCCN(CCc2ccccc2F)C1)C(=O)c1cccs1 (stereo unspecified) |  | 0.958
O=C(NCc1cn2ccccc2n1)C1CCC(=O)N(CCN2CCOCC2)C1 (stereo unspecified) |  | 1.15
CCOC(=O)C1CCCN(C(=O)c2cc(COc3cccc(C(C)=O)c3)[nH]n2)C1 (stereo unspecified) |  | 0.917
Cc1nonc1CC(=O)NC1CC(=O)N(Cc2cccc3ccccc23)C1 (stereo unspecified) |  | 0.949
CC(C)CC(=O)Nc1ccnn1C1CCN(Cc2cc(O)c3ccccc3n2)CC1 | 0.845 | 
CO[C@H]1[C@H](NC(=O)Cc2ccccc2)c2ccccc2C12CCN(C(=O)c1cc(C)ccc1C)CC2 | 0.692 | 
COCCC(=O)N1CCC(n2nccc2NC(=O)c2ccccc2OC)CC1 |  | 1.06
O=C(NCc1ccncn1)c1csc2nc(-c3cccc(C(F)(F)F)c3)cn12 |  | 0.862
O=C(Cc1cccnc1)NC1CC(=O)N(Cc2cccc3ccccc23)C1 (stereo unspecified) |  | 0.948
CN(C)CCC1CN(C(=O)c2ccc(C(F)(F)F)cc2)CCO1 (stereo unspecified) | 0.822 | 
CC(C)CCn1c(CN(C)CCc2ccccn2)cnc1S(=O)(=O)C(C)C |  | 1.06
Fc1ccc(Oc2ncccc2CNC2CCSCC2)c(F)c1 |  | 0.846
COCc1nc2cc(NC(=O)Cc3ccccc3)cc(C(=O)NCC3OCCc4ccccc43)c2n1C (stereo unspecified) | 0.781 | 

Retrieved by compound from the entries so far (2):
SMILES | bacterial growth OD600 (polymyxin B 0.75 µg/mL) | bacterial growth OD600 (polymyxin B 1 µg/mL)
O=C(Nc1ccc(Oc2ccccc2)nc1)C1CCN(Cc2cccnc2)CC1 |  | 0.982
CCOC(=O)C1CCCN(C(=O)c2cc(COc3cccc(C(C)=O)c3)[nH]n2)C1 (stereo unspecified) |  | 0.917
